# According to paper PMC10645592:
# Amino acid sequences for entries named in this document (tags omitted). Residues count along the entry.
# UniProt Q9FIH8, residues 144-1265: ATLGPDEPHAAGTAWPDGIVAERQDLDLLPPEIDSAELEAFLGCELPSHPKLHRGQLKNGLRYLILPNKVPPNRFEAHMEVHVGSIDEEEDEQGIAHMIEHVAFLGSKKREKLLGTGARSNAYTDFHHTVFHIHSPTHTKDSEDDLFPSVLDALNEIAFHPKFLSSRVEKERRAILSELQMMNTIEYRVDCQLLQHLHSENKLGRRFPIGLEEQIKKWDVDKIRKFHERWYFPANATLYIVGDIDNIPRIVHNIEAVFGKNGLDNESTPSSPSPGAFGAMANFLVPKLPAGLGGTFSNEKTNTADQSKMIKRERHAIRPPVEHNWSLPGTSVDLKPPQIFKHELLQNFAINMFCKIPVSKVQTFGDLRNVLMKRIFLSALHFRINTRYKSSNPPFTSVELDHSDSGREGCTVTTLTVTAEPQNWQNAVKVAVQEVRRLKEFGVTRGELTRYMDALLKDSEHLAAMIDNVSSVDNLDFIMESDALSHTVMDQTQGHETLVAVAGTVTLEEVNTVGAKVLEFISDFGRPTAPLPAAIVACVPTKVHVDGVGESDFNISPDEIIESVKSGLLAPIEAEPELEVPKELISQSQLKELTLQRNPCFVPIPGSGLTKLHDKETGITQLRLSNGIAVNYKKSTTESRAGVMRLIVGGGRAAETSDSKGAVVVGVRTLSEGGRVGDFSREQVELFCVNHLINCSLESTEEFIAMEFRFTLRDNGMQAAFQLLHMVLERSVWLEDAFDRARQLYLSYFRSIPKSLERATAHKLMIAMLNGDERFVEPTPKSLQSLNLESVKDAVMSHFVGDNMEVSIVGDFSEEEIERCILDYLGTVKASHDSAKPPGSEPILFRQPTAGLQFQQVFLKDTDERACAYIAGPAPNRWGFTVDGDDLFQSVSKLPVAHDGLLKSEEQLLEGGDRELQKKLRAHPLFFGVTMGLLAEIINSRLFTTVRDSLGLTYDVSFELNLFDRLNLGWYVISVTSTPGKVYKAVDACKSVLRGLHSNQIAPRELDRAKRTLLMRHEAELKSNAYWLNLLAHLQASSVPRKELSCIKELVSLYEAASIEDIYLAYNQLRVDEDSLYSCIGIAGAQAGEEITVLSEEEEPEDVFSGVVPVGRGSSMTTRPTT
# UniProt Q15365: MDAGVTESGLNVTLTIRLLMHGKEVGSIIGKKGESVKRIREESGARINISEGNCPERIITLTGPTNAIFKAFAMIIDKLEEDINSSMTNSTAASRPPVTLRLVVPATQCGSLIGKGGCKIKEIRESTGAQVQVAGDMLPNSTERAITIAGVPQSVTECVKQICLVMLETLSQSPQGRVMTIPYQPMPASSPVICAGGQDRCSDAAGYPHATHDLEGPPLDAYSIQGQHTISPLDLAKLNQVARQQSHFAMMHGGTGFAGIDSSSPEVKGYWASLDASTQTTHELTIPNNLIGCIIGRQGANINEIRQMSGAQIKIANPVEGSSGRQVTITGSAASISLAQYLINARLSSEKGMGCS
# UniProt Q13200: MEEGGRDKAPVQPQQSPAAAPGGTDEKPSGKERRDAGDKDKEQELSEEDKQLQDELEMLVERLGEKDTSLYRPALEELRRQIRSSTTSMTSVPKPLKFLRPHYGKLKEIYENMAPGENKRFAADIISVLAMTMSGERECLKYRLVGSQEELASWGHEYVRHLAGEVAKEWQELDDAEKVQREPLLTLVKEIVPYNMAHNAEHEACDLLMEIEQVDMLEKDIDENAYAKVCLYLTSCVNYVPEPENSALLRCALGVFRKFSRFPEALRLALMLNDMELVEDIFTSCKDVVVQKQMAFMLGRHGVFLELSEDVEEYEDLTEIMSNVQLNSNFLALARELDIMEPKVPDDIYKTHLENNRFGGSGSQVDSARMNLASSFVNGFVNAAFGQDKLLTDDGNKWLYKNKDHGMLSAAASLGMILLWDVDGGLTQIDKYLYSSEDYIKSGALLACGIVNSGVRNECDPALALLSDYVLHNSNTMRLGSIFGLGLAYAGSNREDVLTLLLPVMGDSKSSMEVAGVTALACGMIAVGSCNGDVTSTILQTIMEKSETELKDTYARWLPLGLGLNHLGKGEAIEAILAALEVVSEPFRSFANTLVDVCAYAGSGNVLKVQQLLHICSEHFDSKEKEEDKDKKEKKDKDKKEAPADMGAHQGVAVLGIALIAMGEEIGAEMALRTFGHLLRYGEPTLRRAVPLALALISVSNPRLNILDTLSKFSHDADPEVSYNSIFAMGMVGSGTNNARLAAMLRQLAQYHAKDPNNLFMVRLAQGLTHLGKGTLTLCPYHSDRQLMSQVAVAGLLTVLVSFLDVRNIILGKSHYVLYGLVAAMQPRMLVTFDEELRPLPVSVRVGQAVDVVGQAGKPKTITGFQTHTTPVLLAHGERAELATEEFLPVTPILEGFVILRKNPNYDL
# Results are given in words; binding and its absence hold for the method and conditions named. Binding seen in cells or lysates may run through a third protein. A yes stands for co-enrichment or nearness to the bait. Other partners may have been found.
# B1: SNRNP27 (protein, UniProt Q8WVK2 1-155)
# chain: MGRSRSRSPRRERRRSRSTSRERERRRRERSRSRERDRRRSRSRSPHRRRSRSPRRHRSTSPSPSRLKERRDEEKKETKETKSKERQITEEDLEGKTEEEIEMMKLMGFASFDSTKGKKVDGSVNAYAINVSQKRKYRQYMNRKGGFNRPLDFIA
# B2: SMC1A (protein, UniProt Q14683 1-1233)
# chain: MGFLKLIEIENFKSYKGRQIIGPFQRFTAIIGPNGSGKSNLMDAISFVLGEKTSNLRVKTLRDLIHGAPVGKPAANRAFVSMVYSEEGAEDRTFARVIVGGSSEYKINNKVVQLHEYSEELEKLGILIKARNFLVFQGAVESIAMKNPKERTALFEEISRSGELAQEYDKRKKEMVKAEEDTQFNYHRKKNIAAERKEAKQEKEEADRYQRLKDEVVRAQVQLQLFKLYHNEVEIEKLNKELASKNKEIEKDKKRMDKVEDELKEKKKELGKMMREQQQIEKEIKEKDSELNQKRPQYIKAKENTSHKIKKLEAAKKSLQNAQKHYKKRKGDMDELEKEMLSVEKARQEFEERMEEESQSQGRDLTLEENQVKKYHRLKEEASKRAATLAQELEKFNRDQKADQDRLDLEERKKVETEAKIKQKLREIEENQKRIEKLEEYITTSKQSLEEQKKLEGELTEEVEMAKRRIDEINKELNQVMEQLGDARIDRQESSRQQRKAEIMESIKRLYPGSVYGRLIDLCQPTQKKYQIAVTKVLGKNMDAIIVDSEKTGRDCIQYIKEQRGEPETFLPLDYLEVKPTDEKLRELKGAKLVIDVIRYEPPHIKKALQYACGNALVCDNVEDARRIAFGGHQRHKTVALDGTLFQKSGVISGGASDLKAKARRWDEKAVDKLKEKKERLTEELKEQMKAKRKEAELRQVQSQAHGLQMRLKYSQSDLEQTKTRHLALNLQEKSKLESELANFGPRINDIKRIIQSREREMKDLKEKMNQVEDEVFEEFCREIGVRNIREFEEEKVKRQNEIAKKRLEFENQKTRLGIQLDFEKNQLKEDQDKVHMWEQTVKKDENEIEKLKKEEQRHMKIIDETMAQLQDLKNQHLAKKSEVNDKNHEMEEIRKKLGGANKEMTHLQKEVTAIETKLEQKRSDRHNLLQACKMQDIKLPLSKGTMDDISQEEGSSQGEDSVSGSQRISSIYAREALIEIDYGDLCEDLKDAQAEEEIKQEMNTLQQKLNEQQSVLQRIAAPNMKAMEKLESVRDKFQETSDEFEAARKRAKKAKQAFEQIKKERFDRFNACFESVATNIDEIYKALSRNSSAQAFLGPENPEEPYLDGINYNCVAPGKRFRPMDNLSGGEKTVAALALLFAIHSYKPAPFFVLDEIDAALDNTNIGKVANYIKEQSTCNFQAIVISLKEEFYTKAESLIGVYPEQGDCVISKVLTFDLTKYPDANPNPNEQ
# B3: C7orf50 (protein, UniProt Q9BRJ6 1-194)
# chain: MAKQKRKVPEVTEKKNKKLKKASAEGPLLGPEAAPSGEGAGSKGEAVLRPGLDAEPELSPEEQRVLERKLKKERKKEERQRLREAGLVAQHPPARRSGAELALDYLCRWAQKHKNWRFQKTRQTWLLLHMYDSDKVPDEHFSTLLAYLEGLQGRARELTVQKAEALMRELDEEGSDPPLPGRAQRIRQVLQLLS
# B4: DDX24 (protein, UniProt Q9GZR7 1-859)
# chain: MKLKDTKSRPKQSSCGKFQTKGIKVVGKWKEVKIDPNMFADGQMDDLVCFEELTDYQLVSPAKNPSSLFSKEAPKRKAQAVSEEEEEEEGKSSSPKKKIKLKKSKNVATEGTSTQKEFEVKDPELEAQGDDMVCDDPEAGEMTSENLVQTAPKKKKNKGKKGLEPSQSTAAKVPKKAKTWIPEVHDQKADVSAWKDLFVPRPVLRALSFLGFSAPTPIQALTLAPAIRDKLDILGAAETGSGKTLAFAIPMIHAVLQWQKRNAAPPPSNTEAPPGETRTEAGAETRSPGKAEAESDALPDDTVIESEALPSDIAAEARAKTGGTVSDQALLFGDDDAGEGPSSLIREKPVPKQNENEEENLDKEQTGNLKQELDDKSATCKAYPKRPLLGLVLTPTRELAVQVKQHIDAVARFTGIKTAILVGGMSTQKQQRMLNRRPEIVVATPGRLWELIKEKHYHLRNLRQLRCLVVDEADRMVEKGHFAELSQLLEMLNDSQYNPKRQTLVFSATLTLVHQAPARILHKKHTKKMDKTAKLDLLMQKIGMRGKPKVIDLTRNEATVETLTETKIHCETDEKDFYLYYFLMQYPGRSLVFANSISCIKRLSGLLKVLDIMPLTLHACMHQKQRLRNLEQFARLEDCVLLATDVAARGLDIPKVQHVIHYQVPRTSEIYVHRSGRTARATNEGLSLMLIGPEDVINFKKIYKTLKKDEDIPLFPVQTKYMDVVKERIRLARQIEKSEYRNFQACLHNSWIEQAAAALEIELEEDMYKGGKADQQEERRRQKQMKVLKKELRHLLSQPLFTESQKTKYPTQSGKPPLLVSAPSKSESALSCLSKQKKKKTKKPKEPQPEQPQPSTSAN
# Target: synthetic SPP (without chloroplast transit peptide and human codon optimized) fused to green fluorescent protein (GFP) in the N terminus (A. thaliana) (UniProt Q9FIH8)
# Test: affinity purification with mass spectrometry; anti-GFP antibody with lysate of HEK293 cells expressing GFP-SPP compared with cells expressing control GFP (modified RIPA buffer: 50 mM Tris-HCl pH 7.4, 150 mM NaCl, 0.25% DOC, 1% IgPal), µMACS Micro Beads, label-free quantification, FDR < 0.05, n = 3
row,binding,Molecule
1,binds,MRPL28 (from UniProt Q13084 56-256)
2,binds,PCBP1 (from UniProt Q15365 1-356)
3,binds,SLBP (from UniProt Q14493 1-270)
4,binds,proteasome subunit PSMC4 (from UniProt P43686 1-418)
5,binds,proteasome subunit PSMD2 (from UniProt Q13200 1-908)
6,binds,B1
7,binds,B2
8,binds,B3
9,binds,B4
